Data source: PubChem BioAssay AID1508588 (Peter MacCallum Cancer Centre, 2020)
Test: 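Knock-downs boosting vemurafenib effects on melanoma cell growth or lactate release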 (primary screen). System: human WM266.4 melanoma cells (BRAF V600 mutant). Reagent: siRNA pool against human genes, 40 nM. Duration: 96 h from transfection to read-out. Treatment: vemurafenib 300 nM (about IC25), added 48 h after transfection, for 48 h; comparison arm got DMSO vehicle only. Read-out: 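Ratios to non-targeting siRNA for cell gain, counted as DAPI nuclei after minus before drug and averaged over two replicates, and for absorbance-read medium lactate per cell; both binned into fold-change classes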. Scale: cell gain with vemurafenib: higher = more cell gain than with non-targeting siRNA; lactate per cell with vemurafenib: higher = more lactate made per cell. Hit rule: 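Enhancement is called by pairing each knock-down's vehicle-arm and drug-arm fold-change classes for viability or glycolysis; which class combinations qualify is not given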. Calls: active = enhances vemurafenib effect; inactive = no enhancement seen.
The whole screen tested about 18,000 reagents; shown is a part drawn at random. Over the whole deposit, 790 (4.4%) were called active. 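Calls rest on a combination of fold-change classes in drug and vehicle arms, not all shown here.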 Entries without a mark were called inactive.

Target gene,cell gain with vemurafenib,lactate per cell with vemurafenib
EIF4A1 (eukaryotic translation initiation factor 4A1),0.27,0.62
URB2 (URB2 ribosome biogenesis homolog),0.6,0.97
SFTPA2B (retired record),1.17,1.25
EPHA5 (EPH receptor A5),1.04,0.57
PLK3 (polo like kinase 3),0.31,0.74
TYMP (thymidine phosphorylase),0.94,0.93
ISLR (immunoglobulin superfamily containing leucine rich repeat),0.55,1.25
FBXW4 (F-box and WD repeat domain containing 4),0.34,1.82
THRAP3 (thyroid hormone receptor associated protein 3),0.53,0.8
MECP2 (methyl-CpG binding protein 2),0.21,1.72
MOB3B (MOB kinase activator 3B),0.26 (active),0.2
HMCN1 (hemicentin 1),0.11,1.21
CCDC149 (coiled-coil domain containing 149),0.37,1.6
EEF1D (eukaryotic translation elongation factor 1 delta),1.14,0.34
RGS12 (regulator of G protein signaling 12),0.71,1.64
CA9 (carbonic anhydrase 9),0.87,0.68
ODAD1 (outer dynein arm docking complex subunit 1),0.55,1.26
NASP (nuclear autoantigenic sperm protein),0.37,0.38
DEF6 (DEF6 guanine nucleotide exchange factor),0.68,1.7
"RAB2A (RAB2A, member RAS oncogene family)",1,0.5
RPL9 (ribosomal protein L9),-0.08,1.71
OR2A12 (olfactory receptor family 2 subfamily A member 12),1.06,0.43
ENPP3 (ectonucleotide pyrophosphatase/phosphodiesterase 3),0.35,0.2
MORC2 (MORC family CW-type zinc finger 2),0.68,0.8
SULT2A1 (sulfotransferase family 2A member 1),0.59,0.92
SNCG (synuclein gamma),0.1,1.9
CDC6 (cell division cycle 6),0.58,1.62
IER5L (immediate early response 5 like),0.68,1.07
TCL6 (T cell leukemia/lymphoma 6),0.62,1.32
TNIP1 (TNFAIP3 interacting protein 1),1.09,0.77
HARS1 (histidyl-tRNA synthetase 1),0.92,1.44
COBLL1 (cordon-bleu WH2 repeat protein like 1),0.24,0.62
TTC27 (tetratricopeptide repeat domain 27),0.6,0.55
MRPL54 (mitochondrial ribosomal protein L54),0.46,0.85

Part of the list above, reduced to “lactate per cell with vemurafenib”:
NASP (nuclear autoantigenic sperm protein) = 0.38
DEF6 (DEF6 guanine nucleotide exchange factor) = 1.7
